Reference: article PMC10883278
These are yes or no findings as the source states them, for the method shown. Binding seen in cells or lysates may run through a third protein. Binding calls can cover weak binding; strength is not graded here.

The chains behind the UniProt entries cited, without tags or fusion partners. Where a name states a change or a piece, a line headed by the entry shows the natural chain unless it says otherwise.
UniProt Q5VVJ2: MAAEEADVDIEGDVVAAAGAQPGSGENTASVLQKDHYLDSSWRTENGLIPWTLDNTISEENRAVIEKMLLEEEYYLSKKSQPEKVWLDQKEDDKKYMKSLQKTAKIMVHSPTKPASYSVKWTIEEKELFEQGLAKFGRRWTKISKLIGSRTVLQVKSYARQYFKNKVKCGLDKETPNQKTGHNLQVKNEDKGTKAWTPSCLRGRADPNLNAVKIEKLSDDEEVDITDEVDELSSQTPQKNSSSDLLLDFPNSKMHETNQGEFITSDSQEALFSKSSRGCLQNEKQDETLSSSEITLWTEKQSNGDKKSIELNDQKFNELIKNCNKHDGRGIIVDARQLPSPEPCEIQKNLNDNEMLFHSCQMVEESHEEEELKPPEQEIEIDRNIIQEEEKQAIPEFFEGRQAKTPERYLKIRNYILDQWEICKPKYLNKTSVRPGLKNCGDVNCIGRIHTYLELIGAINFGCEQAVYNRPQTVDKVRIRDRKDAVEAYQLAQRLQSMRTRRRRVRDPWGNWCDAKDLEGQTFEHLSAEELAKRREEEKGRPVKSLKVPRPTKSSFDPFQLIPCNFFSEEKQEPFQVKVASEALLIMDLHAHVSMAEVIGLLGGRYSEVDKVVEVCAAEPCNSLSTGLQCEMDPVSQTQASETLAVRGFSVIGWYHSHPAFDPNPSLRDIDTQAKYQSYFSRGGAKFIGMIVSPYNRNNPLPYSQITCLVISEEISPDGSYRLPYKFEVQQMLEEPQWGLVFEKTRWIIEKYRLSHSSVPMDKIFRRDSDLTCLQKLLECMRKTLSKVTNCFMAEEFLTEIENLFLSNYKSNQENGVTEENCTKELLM
UniProt P03372: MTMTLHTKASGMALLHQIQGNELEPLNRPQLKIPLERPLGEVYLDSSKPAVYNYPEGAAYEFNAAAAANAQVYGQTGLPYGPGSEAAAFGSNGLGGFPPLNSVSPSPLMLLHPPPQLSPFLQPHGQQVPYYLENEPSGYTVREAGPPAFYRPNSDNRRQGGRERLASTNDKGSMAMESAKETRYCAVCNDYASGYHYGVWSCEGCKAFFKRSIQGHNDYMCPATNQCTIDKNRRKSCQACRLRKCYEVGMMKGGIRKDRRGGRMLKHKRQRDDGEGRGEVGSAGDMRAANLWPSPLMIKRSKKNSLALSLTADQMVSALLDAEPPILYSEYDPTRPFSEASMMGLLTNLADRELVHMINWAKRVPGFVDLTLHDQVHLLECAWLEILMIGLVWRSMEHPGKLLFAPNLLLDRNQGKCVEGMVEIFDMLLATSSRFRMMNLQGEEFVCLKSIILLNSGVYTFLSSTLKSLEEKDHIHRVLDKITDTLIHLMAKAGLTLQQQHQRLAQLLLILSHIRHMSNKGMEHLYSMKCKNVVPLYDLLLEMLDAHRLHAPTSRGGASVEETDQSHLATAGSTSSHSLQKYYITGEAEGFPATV

Legend:
[1] = target: FLAG-tagged MYSM1-ΔMPN (human) (UniProt Q5VVJ2); assay: co-IP; anti-FLAG immunoprecipitation (IgG control) from whole-cell extracts of HEK293 (Fig. 1B, EV1E) or MCF-7 (Fig. 1F) cells co-transfected with FLAG-MYSM1 (wild type or deletion mutants) and ERα; Fig. 1B: estrogen-depleted medium 48 h, then ethanol vehicle or E2 (100 nM) for 12 h; Protein A/G agarose, overnight, three rinses, immunoblot
[2] = target: FLAG-tagged MYSM1-ΔSWIRM (human) (UniProt Q5VVJ2); assay: as above

Question: “ERα (estrogen receptor alpha), ectopically expressed (from UniProt P03372 1-595)” was tested. Which binding [1] did it give?
Answer: The binding was “binds”.

Question: What about the binding [2] of the same substance?
Answer: The binding was “binds”.
